Cell number change and AC50 data for 44 compounds are collected here from PubChem BioAssay AID2685 (National Center for Advancing Translational Sciences (NCATS), 2010).

This is one part of the list. The main result of the screen is listed elsewhere. These columns were measured beside it and carry no call. Compounds called inactive in the main read-out are mostly missing here. The note in brackets gives the kind of curve behind each potency; many fits are weak.

The nature of the test: qHTS Assay for Lipid Storage Modulators in Drosophila S3 Cells.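 On Cell number change: cells counted by Cell Tracker Red CMTPX staining in the red channel.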 To be noted: BODIPY lipid droplet fluorescence, 18-24 h; for cell number change: measured here: cell count max response, cells fed with added oleic acid. Summed up:
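Drosophila S3 cells loaded with oleic acid (400 uM, as added) and compounds at several concentrations; lipid droplets imaged by 488-nm laser-scanning cytometry, 500–530 nm intensity and object ratio to cell channel. Percent activity normalized to 20 uM Triacsin C.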

Where [1] appears, read: measured here: lipid fluorescence (Fed channel) AC50, cells fed with added oleic acid.
Setting [2] is: measured here: cell number channel AC50, cells fed with added oleic acid.

What is called AC50 is the concentration giving half of the maximal activity seen. Consider `O=C(N/N=C/c1ccccc1O)C1SCCCS1`, for which the cell number change is -5.19%. Moreover, the AC50 under setting [1] is 0.00461 µM [falling, full curve, poor fit].
On to `COc1ccc(/C=C/C(=O)OCc2nc3ccccc3c(=O)[nH]2)c(OC)c1`, for which the cell number change was found to be 0.378%. Further, the AC50 under setting [1] is 1.03 µM [rising, full curve, poor fit].
Consider `CCOC(=O)N1CCC(N2CCN(Cc3ccc(C)o3)C(CCO)C2)CC1` (stereo not drawn), for which the cell number change stood at 7.52%. Further, the AC50 under setting [1] was 0.00411 µM [falling, full curve, poor fit].
With `Cc1nc2ncnn2c(C)c1CCC(=O)N1CCN(C(=O)c2ccco2)CC1`, the cell number change was -13.9%.
Take `O=C(Nc1nnc(Cc2ccccc2)s1)c1cnccn1`: the cell number change was 5.41%. Moreover, the AC50 under setting [1] is 0.0058 µM [rising, full curve, poor fit].
`COC(=O)c1ccc(Cn2cc(/C=C\[N+](=O)[O-])c3ccccc32)o1`: the cell number change is -25.8%.
With `COC(=O)c1sccc1NC(=O)CSc1nnnn1-c1ccccc1C`, the cell number change worked out at 59.2%. Besides, the AC50 under setting [2] is 0.206 µM [rising, full curve, poor fit]. In addition, the AC50 under setting [1] is 2.59 µM [rising, full curve].
For the compound `O=[N+]([O-])c1cc([N+](=O)[O-])c(Oc2cncc(Cl)c2)cc1NC1CCCCCCC1`, the cell number change is 14.1%.
Take `CC(=O)c1cc2c(ccc3ccccc32)oc1=O`: the cell number change was -4.67%. Besides, the AC50 under setting [1] was 6.51 µM [rising, single point].
For the compound `COc1ccc(C2NC(=O)NC(c3ccccc3)=C2c2nc3ccccc3s2)cc1` (stereo not drawn), the cell number change is -3.82%.
In the case of `CCOC(=O)CC/C(=N\NC(N)=O)c1ccc(OC)c(Cl)c1`, the cell number change stood at 4.15%. Also, the AC50 under setting [1] was 29.1 µM [rising, single point].
For the compound `COc1ccc(NC(=O)CN(c2ccc(OC)cc2)S(=O)(=O)c2c(C)nn(C)c2C)cc1`, the cell number change came out at 0.59%. Besides, the AC50 under setting [2] is 6.51 µM [falling, single point].
On to `COc1ccc(CCNC(=O)c2cccc(S(=O)(=O)N3CCOCC3)c2)cc1OC`, for which the cell number change was -8.8%. In addition, the AC50 under setting [1] was 0.146 µM [falling, full curve, poor fit].
In the case of `CC(=O)NC(C)c1nc2ccccc2n1CC(=O)NC(C)CCc1ccccc1` (stereo not drawn), the cell number change was 17.3%.
`CC(=O)c1c(N2CCN(c3ccccc3)CC2)nc(=S)n(-c2ccccc2)c1C`: the cell number change was -15%. The AC50 under setting [1] was 0.517 µM [falling, single point].
Turning to `CC(=O)NC(CC(=O)NC1CCCCCC1)c1ccccc1` (stereo not drawn), the cell number change is 5.34%.
As to `CCCNC(=O)N1CCN(S(=O)(=O)c2ccc3c(c2)OCCO3)CC1`, the cell number change was 16.1%. Moreover, under setting [1], the AC50 was 4.11 µM [rising, full curve, poor fit].
Regarding `COc1cc(C2Nc3ccccc3C(=O)N2NS(C)(=O)=O)c([N+](=O)[O-])cc1OC` (stereo not drawn), the cell number change was -2.84%.
Still for that read-out and setting: the result for `COCC(=O)N(c1ccccc1)C(C)C(=O)OC` (stereo not drawn) reads -2.66%.
With `O=C(CCC(=O)OC(C(=O)c1ccccc1)c1ccccc1)Nc1ccccc1` (stereo not drawn), under setting [1], the AC50 is 29.1 µM [falling, partial curve].
As to `CCCN1CCN(CCCNC(=O)c2ccc3c(=O)n(CCc4ccccc4)c(=O)[nH]c3c2)CC1`, the cell number change came out at 25.2%.
Same read-out and setting: next, `Cc1cc(NC(=O)CSc2nc(Cc3ccccc3)c(C)[nH]2)no1`: 10.7%.
With `Cc1c(CC=C(Cl)Cl)c(=O)[nH]c2c(C)cccc12`, the cell number change was -2.41%. Moreover, the AC50 under setting [1] was 0.146 µM [rising, single point].
As to `CC1=CC2=NC(=O)CC(C)(C(=O)N(CC(=O)NC(C)(C)C)C3CCCC3)N2C=C1` (stereo not drawn), the cell number change was 7.64%.
Consider `N#Cc1ccccc1OCC(=O)OCC(=O)c1ccc2c(c1)NC(=O)CO2`, for which the cell number change is -11.5%. The AC50 under setting [1] is 0.0259 µM [rising, full curve, poor fit].
For the compound `O=C(CS(=O)(=O)c1ccccc1)Nc1ccc(N2CCOCC2)cc1`, the cell number change was 19.7%.
As to `CCN(CC)S(=O)(=O)c1cc(NC(=O)COC(=O)c2sc3ccccc3c2Cl)ccc1C`, the cell number change is 33.6%. Further, under setting [2], the AC50 was 4.11 µM [rising, full curve, poor fit].
`O=C(COC(=O)CNC(=O)c1ccc(Cl)cc1Cl)NCC1CCCO1` (stereo not drawn): the cell number change is -9%.
For the compound `O=C(Nc1ccncc1)Nc1ccc(F)cc1F`, the AC50 under setting [2] was 0.411 µM [falling, single point].
With `O=C1C=C(NC2=CC3OC(c4ccccc4)OCC3OC2=O)CCC1` (stereo not drawn), the cell number change was -72.4%. In addition, under setting [2], the AC50 was 23.1 µM [falling, partial curve]. Under setting [1], the AC50 was 0.58 µM [falling, single point].
`COc1ccccc1OCC(=O)Nc1ccccc1C(=O)NCc1cccnc1`: the cell number change is -6.58%.
`O=c1[nH]c(/C=C/c2ccc(OC(F)F)cc2)nc2c1cnn2-c1ccccc1`: the cell number change was 49%. Besides, under setting [2], the AC50 was 9.2 µM [rising, partial curve]. For the same compound, the AC50 under setting [1] is 0.00411 µM [rising, full curve, poor fit].
Turning to `O=C(CCSCc1ccccc1Cl)N1CCN(c2cccc(Cl)c2)CC1`, the cell number change is 34.5%. In addition, the AC50 under setting [2] was 29.1 µM [rising, single point]. Also, under setting [1], the AC50 is 25.9 µM [rising, single point].
For the compound `N#CC1=C(N)OC(c2ccccc2)=C(C#N)C1c1ccc2c(c1)OCO2` (stereo not drawn), the cell number change is -2.58%. Further, the concentration at half-maximal activity (AC50) under setting [1] is 4.11 µM [rising, partial curve].
In the case of `N#CCc1ccc(NC(=O)CSc2nnc(C3CC3)n2C2CC2)cc1`, the cell number change was -13%. For the same compound, under setting [1], the AC50 is 20.6 µM [rising, single point].
`O=C(CSc1nc2ccccc2s1)N/N=C/c1cc([N+](=O)[O-])ccc1O`: the cell number change came to 3.27%.
The same measure, in the same setting: the result for `C=CCn1c(-c2ccc3[nH]c(C)c(C)c3c2)n[nH]c1=S` reads -3.47%.
In the case of `CCOC(=O)c1cccc(NC(=O)Cn2cnc3c2c(=O)n(C)c(=O)n3C)c1`, under setting [1], the AC50 was 0.231 µM [rising, full curve, poor fit].
Consider `COc1ccc(-c2nc(C)ncc2-c2csc(C)n2)c(O)c1`, for which the cell number change is 42.6%. Also, under setting [2], the AC50 is 4.11 µM [rising, partial curve, poor fit]. Also, under setting [1], the AC50 is 2.59 µM [rising, partial curve].
In the case of `CCOC(=O)N1CCC(c2nc3ccccc3[nH]2)CC1`, the cell number change amounted to 4.23%. Moreover, under setting [2], the AC50 was 0.651 µM [falling, single point].
`O=C(c1cc(-c2ccccc2)nc2ccccc12)N1CCCC1`: the cell number change came out at 10.1%.
Take `CCCOc1ccc(N2CC(C(=O)Nc3ncccc3C)CC2=O)cc1` (stereo not drawn): the cell number change came out at 124%. Also, the AC50 under setting [2] is 9.2 µM [rising, partial curve]. For the same compound, the AC50 under setting [1] was 2.06 µM [rising, partial curve].
`O=C(COc1ccccc1F)Nc1ccc(S(=O)(=O)Nc2nccs2)cc1`: the cell number change was determined as 11.1%.
Regarding `Cc1c(C(=O)Nc2ccc(N3CCOCC3)cc2)oc2ccccc12`, the cell number change came to 45.7%. Besides, the AC50 under setting [2] is 0.00517 µM [rising, full curve, poor fit].
